Test results as given in paper PMC5473940, “SAF-A Regulates Interphase Chromosome Structure through Oligomerization with Chromatin-Associated RNAs” (Cell, 2017).
No constants are given. Whether binding was seen depends on the method and setting. Binding seen in cells or lysates may run through a third protein. Some entries that bind do so weakly or less than the wild type.

Amino acid sequences for entries named in this document (tags omitted). A change or cut given only in a name is not applied to a line headed by its entry. Chains listed by the source or under a name are the forms on record and can include a tag or linker.
full-length SAF-A Walker B mutant, FLAG-tagged and T7-tagged copies (Flp-In T-REx 293) (Q00839-2, form named): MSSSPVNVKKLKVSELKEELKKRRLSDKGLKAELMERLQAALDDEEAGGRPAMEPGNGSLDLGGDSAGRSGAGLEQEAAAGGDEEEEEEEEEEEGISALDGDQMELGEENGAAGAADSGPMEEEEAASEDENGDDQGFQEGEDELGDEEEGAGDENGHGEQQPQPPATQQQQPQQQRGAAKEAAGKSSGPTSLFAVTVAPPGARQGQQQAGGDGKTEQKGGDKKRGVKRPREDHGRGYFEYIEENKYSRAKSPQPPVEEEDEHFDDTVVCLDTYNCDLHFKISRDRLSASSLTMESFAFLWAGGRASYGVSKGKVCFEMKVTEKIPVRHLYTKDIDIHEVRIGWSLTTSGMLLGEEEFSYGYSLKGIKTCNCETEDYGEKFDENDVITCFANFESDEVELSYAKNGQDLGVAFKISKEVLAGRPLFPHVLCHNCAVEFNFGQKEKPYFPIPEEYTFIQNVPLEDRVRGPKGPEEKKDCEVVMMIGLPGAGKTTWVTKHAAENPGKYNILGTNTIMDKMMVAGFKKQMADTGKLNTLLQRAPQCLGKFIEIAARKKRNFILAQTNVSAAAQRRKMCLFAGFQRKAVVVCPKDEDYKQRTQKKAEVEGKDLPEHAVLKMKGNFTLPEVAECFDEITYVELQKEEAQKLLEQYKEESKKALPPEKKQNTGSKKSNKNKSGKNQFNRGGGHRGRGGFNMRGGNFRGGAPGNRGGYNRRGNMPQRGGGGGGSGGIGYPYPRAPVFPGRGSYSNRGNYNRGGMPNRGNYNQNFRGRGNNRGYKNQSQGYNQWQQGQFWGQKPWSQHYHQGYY
full-length wild-type SAF-A, FLAG-tagged and T7-tagged copies (Flp-In T-REx 293) (Q00839-2, form named): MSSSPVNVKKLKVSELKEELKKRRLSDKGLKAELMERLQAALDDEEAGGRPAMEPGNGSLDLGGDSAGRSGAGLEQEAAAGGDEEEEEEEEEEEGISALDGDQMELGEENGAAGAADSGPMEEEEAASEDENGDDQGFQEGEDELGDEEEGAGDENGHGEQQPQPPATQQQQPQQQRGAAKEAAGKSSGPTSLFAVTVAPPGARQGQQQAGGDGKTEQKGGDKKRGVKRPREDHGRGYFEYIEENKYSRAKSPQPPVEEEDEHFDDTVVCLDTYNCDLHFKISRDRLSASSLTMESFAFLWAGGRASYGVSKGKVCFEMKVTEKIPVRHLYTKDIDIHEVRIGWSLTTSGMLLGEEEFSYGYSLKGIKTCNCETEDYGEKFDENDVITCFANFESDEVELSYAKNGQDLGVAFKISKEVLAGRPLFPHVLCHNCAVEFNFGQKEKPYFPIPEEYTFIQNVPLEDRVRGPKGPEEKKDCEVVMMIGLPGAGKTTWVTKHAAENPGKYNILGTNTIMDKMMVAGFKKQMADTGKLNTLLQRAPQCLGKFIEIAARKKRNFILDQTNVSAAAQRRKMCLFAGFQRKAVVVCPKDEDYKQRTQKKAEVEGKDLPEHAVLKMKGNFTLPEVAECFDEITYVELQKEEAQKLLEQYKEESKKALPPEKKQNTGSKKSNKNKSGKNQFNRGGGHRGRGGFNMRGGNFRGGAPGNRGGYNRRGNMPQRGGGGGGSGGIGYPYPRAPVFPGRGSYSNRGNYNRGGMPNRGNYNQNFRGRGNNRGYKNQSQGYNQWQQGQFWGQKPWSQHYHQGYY

How the values were obtained:
[1] = molecular target: full-length SAF-A Walker B mutant, FLAG-tagged and T7-tagged copies (Flp-In T-REx 293) (human) (UniProt Q00839); assay: proximity ligation; Duolink in situ PLA with anti-FLAG and anti-T7 in Flp-In T-REx 293 cells depleted of endogenous SAF-A, expressing FLAG-tagged and T7-tagged SAF-A; also after α-amanitin for 5 hr (number of signals significantly decreased)
[2] = molecular target: full-length wild-type SAF-A, FLAG-tagged and T7-tagged copies (Flp-In T-REx 293) (human) (UniProt Q00839); assay: as above

binding [1] | binding [2] | Substance
binds |  | full-length SAF-A Walker B mutant, FLAG-tagged and T7-tagged copies (Flp-In T-REx 293) (from UniProt Q00839-2 1-806)
 | binds | full-length wild-type SAF-A, FLAG-tagged and T7-tagged copies (Flp-In T-REx 293) (from UniProt Q00839-2 1-806)
